Experimental data published in article PMC8184862.
These are yes or no findings as the source states them, for the method shown. In cells and extracts the contact can be indirect. Some binding calls cover weakened binding; strength is not graded here.

Chains of the proteins cited; added tags and fusions are not shown.
UniProt P47196: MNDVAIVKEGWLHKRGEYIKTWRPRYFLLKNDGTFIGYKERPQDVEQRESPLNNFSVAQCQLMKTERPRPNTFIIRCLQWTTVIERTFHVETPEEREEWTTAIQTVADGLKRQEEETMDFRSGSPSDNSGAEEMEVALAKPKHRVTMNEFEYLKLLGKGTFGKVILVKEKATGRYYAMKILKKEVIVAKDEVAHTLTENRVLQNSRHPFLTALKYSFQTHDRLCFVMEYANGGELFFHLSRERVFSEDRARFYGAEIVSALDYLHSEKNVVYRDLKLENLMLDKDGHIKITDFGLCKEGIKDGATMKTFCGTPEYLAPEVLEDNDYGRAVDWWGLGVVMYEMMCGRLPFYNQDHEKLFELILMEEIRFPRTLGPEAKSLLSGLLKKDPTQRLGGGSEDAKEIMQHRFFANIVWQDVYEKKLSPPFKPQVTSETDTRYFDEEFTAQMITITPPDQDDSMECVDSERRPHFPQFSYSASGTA
UniProt Q62812: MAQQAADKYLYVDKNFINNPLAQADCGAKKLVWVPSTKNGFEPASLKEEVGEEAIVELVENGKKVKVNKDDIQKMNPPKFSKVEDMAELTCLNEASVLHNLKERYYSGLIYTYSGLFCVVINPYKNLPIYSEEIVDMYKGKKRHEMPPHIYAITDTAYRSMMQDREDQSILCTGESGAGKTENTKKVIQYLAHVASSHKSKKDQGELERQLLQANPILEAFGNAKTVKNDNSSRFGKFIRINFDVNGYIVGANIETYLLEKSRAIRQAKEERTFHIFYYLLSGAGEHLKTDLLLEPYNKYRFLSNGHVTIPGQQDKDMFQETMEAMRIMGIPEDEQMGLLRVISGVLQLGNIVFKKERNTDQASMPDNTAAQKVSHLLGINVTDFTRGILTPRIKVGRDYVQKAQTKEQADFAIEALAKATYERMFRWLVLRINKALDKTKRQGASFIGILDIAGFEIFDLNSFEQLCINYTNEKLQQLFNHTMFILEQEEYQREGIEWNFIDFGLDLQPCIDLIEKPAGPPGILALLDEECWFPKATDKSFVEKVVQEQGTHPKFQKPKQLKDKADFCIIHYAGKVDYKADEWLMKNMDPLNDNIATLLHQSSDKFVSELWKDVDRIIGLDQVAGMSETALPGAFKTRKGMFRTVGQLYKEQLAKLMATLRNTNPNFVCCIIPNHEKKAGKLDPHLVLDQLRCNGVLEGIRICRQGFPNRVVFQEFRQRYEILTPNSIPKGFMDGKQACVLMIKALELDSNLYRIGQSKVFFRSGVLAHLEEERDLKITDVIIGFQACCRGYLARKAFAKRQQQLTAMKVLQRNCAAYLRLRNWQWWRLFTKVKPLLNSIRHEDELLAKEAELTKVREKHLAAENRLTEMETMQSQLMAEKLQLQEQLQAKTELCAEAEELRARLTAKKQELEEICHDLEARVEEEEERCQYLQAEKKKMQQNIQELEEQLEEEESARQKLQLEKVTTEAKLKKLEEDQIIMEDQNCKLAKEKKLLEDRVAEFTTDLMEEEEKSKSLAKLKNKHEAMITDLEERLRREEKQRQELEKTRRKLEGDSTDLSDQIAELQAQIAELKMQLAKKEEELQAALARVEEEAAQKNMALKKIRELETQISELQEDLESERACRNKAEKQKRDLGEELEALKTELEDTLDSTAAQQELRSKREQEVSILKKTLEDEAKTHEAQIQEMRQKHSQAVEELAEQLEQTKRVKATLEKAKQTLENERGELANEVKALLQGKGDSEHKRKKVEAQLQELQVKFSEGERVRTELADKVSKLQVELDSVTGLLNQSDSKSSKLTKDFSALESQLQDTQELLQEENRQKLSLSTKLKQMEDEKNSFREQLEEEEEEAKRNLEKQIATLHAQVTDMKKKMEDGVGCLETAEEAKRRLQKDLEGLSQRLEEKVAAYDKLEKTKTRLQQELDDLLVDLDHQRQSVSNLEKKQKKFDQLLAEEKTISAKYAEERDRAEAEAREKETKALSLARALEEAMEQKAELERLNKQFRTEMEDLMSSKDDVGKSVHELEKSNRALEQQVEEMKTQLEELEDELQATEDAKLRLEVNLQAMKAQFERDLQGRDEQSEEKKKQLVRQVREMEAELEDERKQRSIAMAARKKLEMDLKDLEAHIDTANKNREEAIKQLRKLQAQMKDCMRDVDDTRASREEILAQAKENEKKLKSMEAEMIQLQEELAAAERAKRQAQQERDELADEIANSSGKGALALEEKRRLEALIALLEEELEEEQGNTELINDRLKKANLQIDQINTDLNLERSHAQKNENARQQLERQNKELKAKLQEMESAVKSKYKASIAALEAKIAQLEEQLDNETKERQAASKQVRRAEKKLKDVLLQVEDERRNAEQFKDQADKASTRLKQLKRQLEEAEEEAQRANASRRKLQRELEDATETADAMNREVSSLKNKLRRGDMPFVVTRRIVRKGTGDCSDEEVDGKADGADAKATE

Biological target: Akt1 (rat (endogenous in REKs)) (UniProt P47196)
Assay: co-IP; immunoprecipitation with Akt1 antibody (IgG1 control) from REK lysate in RIPA buffer, Dynabeads Protein G; immunoblot for total Akt, actin, Arp3 and Myh9

Myh9 (from UniProt Q62812 1-1961)
binding: binds
